Primary screen of a compound library

By UniProt entry, the sequences of proteins in these tests, tags left out.
UniProt E9BF75, entry or part of it: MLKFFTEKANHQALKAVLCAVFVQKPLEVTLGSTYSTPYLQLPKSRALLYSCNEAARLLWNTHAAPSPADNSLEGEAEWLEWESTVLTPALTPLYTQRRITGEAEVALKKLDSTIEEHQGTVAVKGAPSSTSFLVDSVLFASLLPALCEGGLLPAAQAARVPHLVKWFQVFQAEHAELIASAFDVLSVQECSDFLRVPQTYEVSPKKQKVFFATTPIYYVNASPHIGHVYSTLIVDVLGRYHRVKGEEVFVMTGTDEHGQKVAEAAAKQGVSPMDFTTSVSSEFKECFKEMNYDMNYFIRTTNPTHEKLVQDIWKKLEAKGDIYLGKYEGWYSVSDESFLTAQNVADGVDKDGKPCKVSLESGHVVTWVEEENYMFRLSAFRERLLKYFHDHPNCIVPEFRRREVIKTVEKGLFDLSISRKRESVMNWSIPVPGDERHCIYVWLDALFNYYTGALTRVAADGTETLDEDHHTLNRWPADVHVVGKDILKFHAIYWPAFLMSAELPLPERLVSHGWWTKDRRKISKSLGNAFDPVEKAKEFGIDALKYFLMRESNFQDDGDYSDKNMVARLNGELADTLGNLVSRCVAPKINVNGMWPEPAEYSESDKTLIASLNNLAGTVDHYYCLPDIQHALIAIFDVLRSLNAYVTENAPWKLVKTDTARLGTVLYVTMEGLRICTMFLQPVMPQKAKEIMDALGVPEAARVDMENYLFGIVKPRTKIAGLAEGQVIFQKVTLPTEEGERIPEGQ

From ChEMBL document CHEMBL3988442, “University of Dundee, Small-Polar-MMV Screening Library” (2021).

Mtb heat-shock: 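Assay on Mycobacterium tuberculosis, filed only as a heat shock assay from Cornell; the read-out is not stated. The concentration is filed as 10 mM, unlikely as a test dose, so the dose is not known. The record gives no direction; compounds that gave an IC50 in retests scored well above the rest, so higher reads as stronger inhibition. About 69,000 compounds were tested under these conditions; 1.4% (about 930) showed 50% or more at least once.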
Mtb growth Cornell: 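Whole-cell assay for inhibitors of Mycobacterium tuberculosis growth, labelled Cornell in the record; the read-out is not stated. The concentration is filed as 10 mM, unlikely as a test dose, so the dose is not known. The record gives no direction; compounds strong in two other growth screens of this library score well above the rest, so higher reads as stronger inhibition. About 53,000 compounds were tested under these conditions; 1.7% (about 900) showed 50% or more at least once.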
LdMetRS: 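Methionyl-tRNA synthetase (putative), Leishmania donovani (UniProt E9BF75). Primary screen of methionyl-tRNA synthetase; the read-out is not stated. The test concentration is not given. Values are per cent inhibition. Of about 68,000 compounds tested this way, about 24 (0.035%) reached 50% or more in at least one test.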

Results are percentages, as filed.
The record does not define 0% and 100%; most values in the screen are far below 50% and negative numbers occur (in some assays of this library far below -100).
Compounds were drawn at random from those tested, without regard to their results.
A dash means the value is not listed here; it may have been measured.

SMILES,Mtb heat-shock,Mtb growth Cornell,LdMetRS
COc1c(CNCC(O)c2ccccc2)c(C(C)C)nn1C (stereo not drawn),4.267,-,17.68
Cc1c(C(C)NCC2CCCC2)cnn1-c1ccc(F)cc1F (stereo not drawn),-5.211,25.98,5.16
CN1CCC2(CC1)C(=O)N(CC1CC1)c1ccccc12.O=C(O)C(F)(F)F,-21.22,8.295,-
O=C(O)C(F)(F)F.[H][C@@]12CCN(Cc3ccsc3)C[C@]1([H])[C@H](C(=O)N1CCCC1)CCO2,-1.445,13.31,-
COC(=O)N1CCC(Nc2ccc(Cl)c(C#N)n2)C1 (stereo not drawn),-0.7649,21.5,7.833
CO[C@H]1CCN(S(=O)(=O)c2cn(C)cn2)[C@H]1Cc1cnn(C)c1.O=C(O)C(F)(F)F,-0.06877,13.54,-
CN(Cc1csc(-c2cccs2)n1)Cc1cccnc1N,-8.226,-,15.33
CC(C)CN1C(=O)c2ccc(C(=O)NCCc3c[nH]cn3)cc2C1=O,-2.663,-,9.544
CN(C)C(=O)[C@]12CCCN(CC3CC3)C[C@H]1CN(c1ccccn1)C2,-,-,15.07
O=C(C1CCCc2[nH]ncc21)N1CCCC2(C1)OCCO2 (stereo not drawn),10.11,14.19,10.86
O=C(Nc1cccnc1)[C@H]1C[C@H]2OCC[C@H]2N(CC2CC2)C1,-,-,0
CSC(C)C(=O)NCCCc1cc(N)n(-c2ccccc2)n1 (stereo not drawn),-7.297,7.396,1.478
Cc1nc(C)n(CC2CCCN(CCc3ccccn3)C2)n1 (stereo not drawn),-19.18,-,13.89
CC(C)NC(=O)N1CCOC2(CCCNC2)C1 (stereo not drawn),0.5451,-,-32.78
CCCn1ccc2cc(NC(=O)CC3CCCO3)ccc21 (stereo not drawn),19.19,42.15,9.409
Cc1ccoc1CNC(C)c1nnc2n1CCCC2 (stereo not drawn),-31.25,-,-
COc1c(CNCCC(=O)Nc2cccc(C)n2)c(C(C)C)nn1C,7.137,-15.85,2.899
Cc1nc(CCC(=O)NC2CCC2)cc(C2CCCNC2)n1 (stereo not drawn),-0.8216,11.12,14.06
COC(=O)NCC(=O)N1CCC(Oc2cccc(C)c2)CC1,-14.35,42.59,6.452
Nc1ncc(C(=O)N2CCC3(CCCO3)CC2)c(-c2ccccc2)n1,-11.02,10.15,11.64
CC(C)=CCN1CCN(Cc2nccn2C)[C@H]2CS(=O)(=O)C[C@H]21,-,-,17.49
O=S(=O)(CCCn1cncn1)Cc1cccc(F)c1,-0.7585,-2.151,6.964
Cc1cc(N2CCCN(C(=O)Cc3cccnc3)CC2)ccn1,-22.34,-3.38,18.73
CCN1CCc2[nH]cnc2C12CCN(C(=O)CCCn1cncn1)CC2,-17.52,-,5.842
OCCN1CCOC2(CCCN(c3ncc(F)cn3)C2)C1 (stereo not drawn),-,-,13.78
CCC[C@H]1CN(S(=O)(=O)c2ccccc2)C[C@@H]1N,-6.895,-15.46,5.279
COc1ccc(OCCCN(C)C(=O)C2CCCN2C(N)=O)cc1 (stereo not drawn),-7.856,-45.56,-7.258
CN(C)CCCNC(=O)c1ccc(Cl)cc1Cl,-11.55,30.56,17.54
Cn1cc(-c2csc(CN3CCOCC3)n2)cn1,-4.295,6.177,10.62
O=C1CCN(C(=O)C2(c3ccc(F)cc3)CCCC2)CCN1,4.545,13.56,15.16
Cn1cc(C(=O)Nc2ccc(CC(=O)NCC(F)(F)F)cc2)nn1,14.33,-27.97,6.522
CN(C)c1cc(CNC(=O)c2cnccn2)ccn1,-3.638,-,12.15
N#Cc1ccc(OC2CCN(CC(=O)NCC(F)(F)F)CC2)cc1,-2.017,-,20.74
Cc1ccc(N2CC3(CCN(C(=O)c4ccoc4)C3)C2)nn1,0.3491,-44.04,6.299
O=C(NCCC1CN(C2CCCC2)CCO1)c1cc(=O)[nH]c(=O)[nH]1 (stereo not drawn),6.074,-49.82,19.68
CC(C)(O)CNc1ccc(C#N)c(C(F)(F)F)c1,-21.07,-,4.735

Some entries from above, unchanged:

With CCN1CCc2[nH]cnc2C12CCN(C(=O)CCCn1cncn1)CC2 the screen gave Mtb heat-shock: -17.52%; LdMetRS: 5.842%.
With Cc1ccc(N2CC3(CCN(C(=O)c4ccoc4)C3)C2)nn1 the screen gave Mtb heat-shock: 0.3491%; Mtb growth Cornell: -44.04%; LdMetRS: 6.299%.